The subject of this assay is RAW 264.7. The experiment in a line: cell viability (MTT) relative to vehicle control; higher = more viable cells. The note with it: stimulus: HMGB1 5 ug/ml, 18 h.
[1] abbreviates: compound concentration: 1 ug/ml.

A word on the cell viability: it is a read-out of living cells in per cent, often relative to untreated cells.

Values joined by “and” are separate entries in the source; they are usually repeats but may differ in a detail not shown here. Identical values can stand only once. Counter-ions that a name gives are not always drawn. ± gives the standard deviation of the averaged measurements. The list shows a part of the results. Repeats are few or missing, and single values can be far off.

On to `CC(C)(CO)[C@@H](O)C(=O)NCCC(=O)NCCSSCCNC(=O)CCNC(=O)[C@H](O)C(C)(C)CO`, for which the cell viability (compound concentration: 3 uM) was 110%.
With `CC(C)(C=O)Cc1cc(C(C)(C)C)c(O)c(C(C)(C)C)c1`, the cell viability (compound concentration: 3 uM) came out at 113%.
On the same count and under the same terms, to `C[C@H]1O[C@H](O[C@H]2[C@H](O)[C@@H](O)[C@@H](O[C@H]3[C@H](O)[C@@H](O)C(O)O[C@@H]3CO)O[C@@H]2CO)[C@H](O)[C@@H](O)[C@@H]1N[C@H]1C=C(CO)[C@@H](O)[C@H](O)[C@H]1O` (stereo partly specified) [Acarbose] belongs 110%; to `C[C@H]1O[C@H](O[C@H]2[C@H](O)[C@@H](O)[C@@H](O[C@H]3[C@H](O)[C@@H](O)C(O)O[C@@H]3CO)O[C@@H]2CO)[C@H](O)[C@@H](O)[C@@H]1N[C@H]1C=C(CO)[C@@H](O)[C@H](O)[C@H]1O` (stereo partly specified), 98.8 ± 6.4%; to `N=C(N)NC(=N)NCCc1ccccc1`, 108%.
Turning to `N=C(N)NC(=N)NCCc1ccccc1` [Phenformin hydrochloride], the cell viability (compound concentration: 3 uM) amounted to 105%.
Regarding `CO[C@H]1/C=C/O[C@@]2(C)Oc3c(C)c(O)c4c(O)c(c(/C=N/N5CCN(C6CCCC6)CC5)c(O)c4c3C2=O)NC(=O)/C(C)=C\C=C\[C@H](C)[C@H](O)[C@@H](C)[C@@H](O)[C@@H](C)[C@H](OC(C)=O)[C@@H]1C`, for the setting “compound concentration: 3 uM”, the cell viability worked out at 99.6%.
Take `CO[C@H]1/C=C/O[C@@]2(C)Oc3c(C)c(O)c4c(O)c(c(/C=N/N5CCN(C6CCCC6)CC5)c(O)c4c3C2=O)NC(=O)/C(C)=C\C=C\[C@H](C)[C@H](O)[C@@H](C)[C@@H](O)[C@@H](C)[C@H](OC(C)=O)[C@@H]1C` [Rifapentine]: the cell viability (compound concentration: 3 uM) stood at 116%.
`CC(C)(C)NC[C@@H](O)COc1cccc2c1CCCC2=O` [(+) -Levobunolol hydrochloride]: the cell viability (compound concentration: 3 uM) is 87.7%.
The same measure, in the same setting: in the case of `NCC(O)C1CCCCCCC1` (stereo unspecified) [2-Cyclooctyl-2-hydroxyethylamine hydrochloride] it was 110%; in that of `CN1CCC(=C2c3ccccc3C=Cc3ccccc32)CC1` [Cyproheptadine], 90.5%.
With `CN1CCC(=C2c3ccccc3C=Cc3ccccc32)CC1` [Cyproheptadine hydrochloride], the cell viability (compound concentration: 3 uM) turned out to be 103.4 ± 0.79%.
`CN1CCC(=C2c3ccccc3C=Cc3ccccc32)CC1`: the cell viability (compound concentration: 3 uM) stood at 97.5 ± 4.6%.
With `O=c1c(O)c(-c2ccc(O)cc2O)oc2cc(O)cc(O)c12` [Morin], the cell viability (compound concentration: 3 uM) was found to be 103%.
Consider `O=c1c(O)c(-c2ccc(O)cc2O)oc2cc(O)cc(O)c12` [Morin hydrate], for which the cell viability under setting [1] was 115%.
Take `CC(/C=C/c1cccc(Oc2ccc(F)cc2)c1)N(O)C(N)=O` (stereo unspecified): the cell viability (compound concentration: 3 uM) worked out at 98.4%.
On the same count and under the same terms, in the case of `COc1ccc(C2CNC(=O)C2)cc1OC1CCCC1` (stereo unspecified) it was 96.4 ± 15%.
Take `COc1ccc(C2CNC(=O)C2)cc1OC1CCCC1` (stereo unspecified) [Rolipram]: the cell viability (compound concentration: 3 uM) worked out at 99.5 ± 16%.
In the case of `CC(C)C[C@@H](NC(=O)[C@H](C)NC(=O)CNC(=O)[C@@H](NC=O)C(C)C)C(=O)N[C@@H](C)C(=O)N[C@@H](C(=O)N[C@H](C(=O)N[C@H](C(=O)N[C@@H](Cc1c[nH]c2ccccc12)C(=O)N[C@H](CC(C)C)C(=O)N[C@@H](Cc1c[nH]c2ccccc12)C(=O)N[C@H](CC(C)C)C(=O)N[C@@H](Cc1c[nH]c2ccccc12)C(=O)N[C@H](CC(C)C)C(=O)N[C@@H](Cc1c[nH]c2ccccc12)C(=O)NCCO)C(C)C)C(C)C)C(C)C`, the cell viability (compound concentration: 3 uM) was found to be 27.1%.
Turning to `OC[C@H]1O[C@@H](Oc2cc(O)cc(/C=C/c3ccc(O)cc3)c2)[C@H](O)[C@@H](O)[C@@H]1O`, the cell viability (compound concentration: 3 uM) is 96.5%.
For the compound `NC(=O)NCCCC(N)C(=O)O` (stereo not drawn) [L(+)-Citrulline], the cell viability under setting [1] was found to be 100%.
`CCCCN1CCCC1CNC(=O)c1cc(C#N)c2ccccc2c1OC` (stereo unspecified) [Nafadotride]: under “compound concentration: 3 uM”, the cell viability was 104%.
Regarding `c1ccc2c3c([nH]c2c1)C1C2CCC(C4CCCNC42)N1CC3` (stereo unspecified) [Nitrarine dihydrochloride], the cell viability (compound concentration: 3 uM) came out at 108%.
Take `O=C1C[C@@H](c2ccc(O)cc2)Oc2cc(O)cc(O)c21` [Naringenin]: the cell viability under setting [1] was 97.8%.
Take `CCC(=O)O[C@]1(C(=O)CCl)[C@@H](C)C[C@H]2[C@@H]3CCC4=CC(=O)C=C[C@]4(C)[C@@]3(F)[C@@H](O)C[C@@]21C` [Clobetasol Propionate]: for the setting “compound concentration: 3 uM”, the cell viability was determined as 106%.
Regarding `CCC(=O)O[C@]1(C(=O)CCl)[C@@H](C)C[C@H]2[C@@H]3CCC4=CC(=O)C=C[C@]4(C)[C@@]3(F)[C@@H](O)C[C@@]21C` [Clobetasol propionate], where the note is “compound concentration: 3 uM”, the cell viability is 146%.
As to `CCC(=O)O[C@]1(C(=O)CCl)[C@@H](C)C[C@H]2[C@@H]3CCC4=CC(=O)C=C[C@]4(C)[C@@]3(F)[C@@H](O)C[C@@]21C`, the cell viability (compound concentration: 3 uM) was found to be 107%.
Regarding `c1ccc([C@H]2CN3CCSC3=N2)cc1` [Levamisole], where the note is “compound concentration: 3 uM”, the cell viability worked out at 99.6%.
Consider `c1ccc([C@H]2CN3CCSC3=N2)cc1` [Levamisole hydrochloride], for which, under “compound concentration: 3 uM”, the cell viability amounted to 101%.
As for `c1ccc([C@H]2CN3CCSC3=N2)cc1`, the cell viability (compound concentration: 3 uM) was 111%.
Consider `CC(C)C[C@H](NP(=O)(O)O[C@H]1O[C@H](C)[C@@H](O)[C@H](O)[C@@H]1O)C(=O)N[C@@H](Cc1c[nH]c2ccccc12)C(=O)O` [Phosphoramidon disodium], for which the cell viability (compound concentration: 3 uM) is 121%.
In the case of `Cc1c(O)c(=O)ccn1C`, the cell viability (compound concentration: 3 uM) is 92.6% and 101%.
As for `O=S(=O)(O)c1cc(O)ccc1O` [Ethamsylate], the cell viability (compound concentration: 3 uM) was determined as 96.2%.
For the compound `Cc1ccc([N+](=O)[O-])cc1S(=O)(=O)N(C)C`, under “compound concentration: 3 uM”, the cell viability was determined as 97.1%.
As for `Oc1ccc([C@@H]2CNCc3sccc32)cc1O`, the cell viability (compound concentration: 3 uM) worked out at 123%.
On the same count and under the same terms, to `COc1ccc(-c2cc3ncc(C)n3c(Nc3ncccc3C(N)=O)n2)cc1OC` [BAY 61-3606 hydrochloride hydrate] belongs 115%; to `NC(=O)c1ccc([N+](=O)[O-])cc1Cl`, 98.1 ± 5%; to `O=C1OCCN1/N=C/c1ccc([N+](=O)[O-])o1` [Furazolidone], 94.5%.
`O=C1OCCN1/N=C/c1ccc([N+](=O)[O-])o1`: under “compound concentration: 3 uM”, the cell viability is 110%.
As for `CN(C)c1nc(N(C)C)nc(N(C)C)n1`, the cell viability (compound concentration: 3 uM) stood at 99.6 ± 7.3%.
As to `CN(C)c1nc(N(C)C)nc(N(C)C)n1` [Altretamine], under “compound concentration: 3 uM”, the cell viability is 104 ± 6%.
On to `Nc1nc2n[nH]nc2c(=O)[nH]1` [Azaguanine-8], for which the cell viability (compound concentration: 3 uM) was found to be 74.3%.
The same measure, in the same setting: to `Nc1nc2c(nc(Br)n2C2OC3COP(=O)(O)O[C@@H]3C2O)c(=O)[nH]1` (stereo partly specified) [8-Bromo-cGMP sodium] belongs 110%.
Regarding `O=C(O)c1cc(-c2ccccc2)nc2ccccc12`, where the note is “compound concentration: 3 uM”, the cell viability is 109%.
Consider `CC(=O)O[C@]1(C(C)=O)CC[C@H]2[C@@H]3C[C@H](C)C4=CC(=O)CC[C@]4(C)[C@H]3CC[C@@]21C`, for which the cell viability (compound concentration: 3 uM) is 104%.
As for `CC(=O)O[C@]1(C(C)=O)CC[C@H]2[C@@H]3C[C@H](C)C4=CC(=O)CC[C@]4(C)[C@H]3CC[C@@]21C` [Medroxyprogesterone 17-Acetate], the cell viability (compound concentration: 3 uM) was found to be 103%.

For the origin of these results see the supplement of paper PMC3682954.
